First the molecules themselves.
B1: il10ra_site1_sap_24_mot_HHH_b2_02116_af2_000000165_0001_41_55_H_._HHH_b1_05383_0001_0000100002_0000001_0_0001 (protein)
chain: SSSSSDEHQIRTHVEAILWFAKWVDNPTALEAMLEAARRYAEELNDEELEELVKKVEEELSSSSS
B2: il10ra_site1_normal_mot_HHH_b2_08186_000000021_0001_43_56_H_._HHH_b1_08707_0001_0000400035_0000001_0 (protein)
chain: SSSSSDIEELLEEAERLAEEGNPEEALRLLQEALRLIFENQDEELLQELWEVLRLVARLSSSSSS
B3: il10ra_site1_sap_29_mot_0eddeacbb14b769e73e254714f31e2f9_0001_af2_000000127_0001_37_51_H_._HHH_b2_03913_af2_0001_0000600015_0000001_0_0001 (protein)
chain: SSSSSDRQEALEVVLHAFRAALRGDREKAEELVEEALEIAEEAGNERLIEMLRRLLKTISSSSSS
B4: il10ra_site1_sap_15_mot_ems_3hM_3349_af2_000000045_0001_25_42_H_._4ed9a5f8f545a7adfbbbb13291f3784e_0001_0001_0000300024_0000001_0_0001_af2pred_dldesign_0_af2pre … (protein)
chain: SSSSDLKKKVEELLAQLRAAQTAEERWNLLVEAYKLAKESKDEELLKKVEEVAKEAAERLSSSSS
B5: il10ra_site1_sap_23_mot_HHH_b1_06788_af2_000000238_0001_19_36_H_._HHH_b1_04268_0001_0000100006_0000002_0_0001 (protein)
chain: SSSSSEEEELAEALIRMIQQAIEHGDEELVEFLLIALEMLAEELNDPELEEELRRLEELINSSSS
B6: il10ra_site1_normal_mot_HHH_b2_00277_af2_000000172_0001_1_17_H_._HHH_b1_05907_0001_0000200015_0000001_0 (protein)
chain: SSSSSSDTEERVEELLEEAKKISDPRHVSHLLIQAYAVANQSNDEELRREVEEVARRLISSSSSS
B7: il10ra_site1_normal_mot_HHH_b1_07256_000000044_0001_1_17_H_._HHH_b1_03517_0001_0000300021_0000001_0 (protein)
chain: SSSDERQEILELIIEAARLLFRGNPEEARKLAEEAEELVEELNDPALQRAVEILKEAIEINSSSS
B8: il10ra_site1_sap_17_mot_HHH_b1_07608_af2_000000080_0001_39_52_H_._HHH_b1_01502_af2_0001_0000400028_0000001_0_0001 (protein)
chain: SSSSSDEEVEERVRELLEELHKVDPQEAYELLREAIELASQNNNPELMREIQEALREWMHSSSSS
B9: il10ra_site1_normal_mot_HHH_b2_07579_000000275_0001_1_19_H_._HHH_b1_01139_af2_0001_0000300023_0000001_0_af2pred_0001 (protein)
chain: SSSSSEEKRKVLELLRKALEIEDKEEAEKVVEEAVRLAEELNDPLAAKLAEMLLEQLEKGSSSSS
B10: il10ra_site1_normal_mot_HHH_b1_00456_000000263_0001_1_17_H_._HHH_b1_03126_0001_0000100016_0000001_1_af2pred_0001 (protein)
chain: SSSSSSEEIQEEVEELLEEAKRIPDPEEAAHFLIRAFALANRLNDPELKELVRKVAIELLSSSSS
B11: il10ra_site1_normal_mot_HHH_b2_07521_000000141_0001_20_37_H_._HHH_b2_07723_0001_0000100012_0000001_0_af2pred_0001 (protein)
chain: SSSDLEKRVRLALRFAKFLLEQGDPEAARIIIEAAKEIAEDAGNEELQKEIEELLKEIEEKSSSS
B12: il10ra_site1_sap_20_mot_HHH_b2_04087_000000122_0001_42_56_H_._HHH_b2_08070_0001_0000400010_0000001_0_0001 (protein)
chain: SSSSDDEEYLEMALRFIEWAIKVGDEESAKRMIKAAEDIAKRLGNEEILERLEELLERLNSSSSS
B13: il10ra_site1_normal_mot_HHH_b2_05343_000000235_0001_19_35_H_._HHH_b2_03467_0001_0000300029_0000001_0 (protein)
chain: SSSSDEIEERLKELREELEELTDPQELFELIREMIELASEANSPEAARFVLEVIREWLEGSSSSS
B14: il10ra_site1_sap_15_mot_HHH_b1_02062_000000185_0001_1_20_H_._HHH_b2_06569_0001_0000400030_0000001_0_0001_af2pred_dldesign_0_af2pred (protein)
chain: SSSSSSQTRQRIRAILWFARVSSNPVVARAMLERAIELAKEIEDEELIKEAEEALKELESSSSSS
B15: il10ra_site1_sap_13_mot_HHH_b2_04592_000000276_0001_41_54_H_._2e374b53e75dc1c2421ca5e7055e643f_0001_0001_0000200012_0000001_0_0001_af2pred_dldesign_0_af2pred (protein)
chain: SSSSSDDREKLERALKYLEFIKEQGDKEAFEKHAAALLQVAKILGDEETVARVEELAAELSSSSS
B16: il10ra_site1_sap_16_mot_HHH_b2_03220_af2_000000223_0001_23_40_H_._HHH_b1_06161_af2_0001_0000300008_0000002_0_0001 (protein)
chain: SSSSSSDEEAAELIREISKVLAEGDRERVEELLEELEKLAEELGDPAARIYVEFVKQLLSSSSSS
B17: il10ra_site1_normal_mot_HHH_b2_00108_000000012_0001_38_56_H_._HHH_b2_04021_0001_0000200012_0000002_0_af2pred_0001 (protein)
chain: SSSSSEESASRFWRRSLKLALEAGNEEELKAALKAAKFLAELTNDEELEEEVEEIERELKSSSSS
B18: il10ra_site1_normal_mot_HHH_b1_06789_af2_000000041_0001_1_20_H_._HHH_b1_02788_0001_0000100006_0000001_0 (protein)
chain: SSSSDLEEEIEEAIEEARENGDELIVQILEILLRQIRRDGSPNARWLVRQVIKALKNLLENSSSS
B19: il10ra_site1_normal_mot_HHH_b2_08186_000000021_0001_43_56_H_._HHH_b2_00017_af2_0002_0000200015_0000001_0 (protein)
chain: SSSSDEEEKEVEELLEEAEKLLEEGNPEEALEVLLKALQLAYELGNAELLRRLWELLRKVLSSSS

Some of the results follow.

The test addresses il10ra, Q13651. The test is described as follows: yeast display titration.
Regarding B1, the “apparent Kd” value was “inactive: no binding seen”.

As for B2, the “apparent Kd” value is “inactive: no binding seen”. As to B3, the “apparent Kd” value was “inactive: no binding seen”. The result for B4 reads “inactive: no binding seen”. The result for B5 reads “inactive: no binding seen”; that for B6, “inactive: no binding seen”. For B7, the “apparent Kd” value was “inactive: no binding seen”. The result for B8 reads “inactive: no binding seen”. The result for B9 reads “inactive: no binding seen”; that for B10, “inactive: no binding seen”. The result for B11 reads “inactive: no binding seen”; that for B12, “inactive: no binding seen”; that for B13, “inactive: no binding seen”. For the molecule B14, the “apparent Kd” value is “inactive: no binding seen”. On to B15, for which the “apparent Kd” value was “inactive: no binding seen”.

For B16, the “apparent Kd” value was “inactive: no binding seen”. The result for B17 reads “inactive: no binding seen”; that for B18, “inactive: no binding seen”. The result for B19 reads “inactive: no binding seen”.

Values taken from article PMC10163288.
